# The list shows a part of the results.
# Amino acid sequences for entries named in this document (tags omitted). A change or cut given only in a name is not applied to a line headed by its entry.
# UniProt Q68CZ2: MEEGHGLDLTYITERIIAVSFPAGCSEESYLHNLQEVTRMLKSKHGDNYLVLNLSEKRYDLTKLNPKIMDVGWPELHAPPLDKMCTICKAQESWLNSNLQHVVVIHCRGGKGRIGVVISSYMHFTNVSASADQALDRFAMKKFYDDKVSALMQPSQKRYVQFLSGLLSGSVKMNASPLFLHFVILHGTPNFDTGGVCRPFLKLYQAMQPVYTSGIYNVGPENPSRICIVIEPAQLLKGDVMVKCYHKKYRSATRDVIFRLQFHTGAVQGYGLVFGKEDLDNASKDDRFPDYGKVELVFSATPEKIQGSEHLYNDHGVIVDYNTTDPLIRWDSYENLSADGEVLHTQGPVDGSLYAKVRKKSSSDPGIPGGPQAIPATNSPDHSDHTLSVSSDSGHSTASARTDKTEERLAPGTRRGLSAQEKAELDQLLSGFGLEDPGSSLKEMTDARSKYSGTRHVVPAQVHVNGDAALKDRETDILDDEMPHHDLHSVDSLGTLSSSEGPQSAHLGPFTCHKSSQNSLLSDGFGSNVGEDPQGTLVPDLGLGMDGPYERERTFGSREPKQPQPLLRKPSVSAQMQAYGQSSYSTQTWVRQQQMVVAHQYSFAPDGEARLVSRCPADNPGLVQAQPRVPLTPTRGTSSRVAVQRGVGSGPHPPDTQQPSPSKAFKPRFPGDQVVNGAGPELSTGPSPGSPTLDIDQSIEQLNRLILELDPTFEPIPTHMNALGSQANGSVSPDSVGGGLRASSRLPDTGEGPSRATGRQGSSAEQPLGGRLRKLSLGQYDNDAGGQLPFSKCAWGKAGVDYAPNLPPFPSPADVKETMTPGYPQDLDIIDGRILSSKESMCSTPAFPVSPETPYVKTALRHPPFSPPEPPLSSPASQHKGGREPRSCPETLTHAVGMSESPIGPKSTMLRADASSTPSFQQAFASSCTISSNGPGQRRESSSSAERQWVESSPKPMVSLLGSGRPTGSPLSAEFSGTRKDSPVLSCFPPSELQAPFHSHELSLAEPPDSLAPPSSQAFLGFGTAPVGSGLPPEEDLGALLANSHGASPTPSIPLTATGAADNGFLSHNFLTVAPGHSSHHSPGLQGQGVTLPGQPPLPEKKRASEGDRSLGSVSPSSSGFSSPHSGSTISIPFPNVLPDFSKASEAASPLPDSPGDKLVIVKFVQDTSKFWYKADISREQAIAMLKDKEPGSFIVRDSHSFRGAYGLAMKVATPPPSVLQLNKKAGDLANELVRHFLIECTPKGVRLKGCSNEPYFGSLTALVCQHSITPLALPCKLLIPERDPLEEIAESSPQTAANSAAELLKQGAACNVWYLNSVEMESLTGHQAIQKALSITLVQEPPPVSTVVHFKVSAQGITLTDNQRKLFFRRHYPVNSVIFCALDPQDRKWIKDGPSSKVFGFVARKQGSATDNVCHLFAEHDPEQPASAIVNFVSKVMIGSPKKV
# UniProt Q92547, whole entry, looked up: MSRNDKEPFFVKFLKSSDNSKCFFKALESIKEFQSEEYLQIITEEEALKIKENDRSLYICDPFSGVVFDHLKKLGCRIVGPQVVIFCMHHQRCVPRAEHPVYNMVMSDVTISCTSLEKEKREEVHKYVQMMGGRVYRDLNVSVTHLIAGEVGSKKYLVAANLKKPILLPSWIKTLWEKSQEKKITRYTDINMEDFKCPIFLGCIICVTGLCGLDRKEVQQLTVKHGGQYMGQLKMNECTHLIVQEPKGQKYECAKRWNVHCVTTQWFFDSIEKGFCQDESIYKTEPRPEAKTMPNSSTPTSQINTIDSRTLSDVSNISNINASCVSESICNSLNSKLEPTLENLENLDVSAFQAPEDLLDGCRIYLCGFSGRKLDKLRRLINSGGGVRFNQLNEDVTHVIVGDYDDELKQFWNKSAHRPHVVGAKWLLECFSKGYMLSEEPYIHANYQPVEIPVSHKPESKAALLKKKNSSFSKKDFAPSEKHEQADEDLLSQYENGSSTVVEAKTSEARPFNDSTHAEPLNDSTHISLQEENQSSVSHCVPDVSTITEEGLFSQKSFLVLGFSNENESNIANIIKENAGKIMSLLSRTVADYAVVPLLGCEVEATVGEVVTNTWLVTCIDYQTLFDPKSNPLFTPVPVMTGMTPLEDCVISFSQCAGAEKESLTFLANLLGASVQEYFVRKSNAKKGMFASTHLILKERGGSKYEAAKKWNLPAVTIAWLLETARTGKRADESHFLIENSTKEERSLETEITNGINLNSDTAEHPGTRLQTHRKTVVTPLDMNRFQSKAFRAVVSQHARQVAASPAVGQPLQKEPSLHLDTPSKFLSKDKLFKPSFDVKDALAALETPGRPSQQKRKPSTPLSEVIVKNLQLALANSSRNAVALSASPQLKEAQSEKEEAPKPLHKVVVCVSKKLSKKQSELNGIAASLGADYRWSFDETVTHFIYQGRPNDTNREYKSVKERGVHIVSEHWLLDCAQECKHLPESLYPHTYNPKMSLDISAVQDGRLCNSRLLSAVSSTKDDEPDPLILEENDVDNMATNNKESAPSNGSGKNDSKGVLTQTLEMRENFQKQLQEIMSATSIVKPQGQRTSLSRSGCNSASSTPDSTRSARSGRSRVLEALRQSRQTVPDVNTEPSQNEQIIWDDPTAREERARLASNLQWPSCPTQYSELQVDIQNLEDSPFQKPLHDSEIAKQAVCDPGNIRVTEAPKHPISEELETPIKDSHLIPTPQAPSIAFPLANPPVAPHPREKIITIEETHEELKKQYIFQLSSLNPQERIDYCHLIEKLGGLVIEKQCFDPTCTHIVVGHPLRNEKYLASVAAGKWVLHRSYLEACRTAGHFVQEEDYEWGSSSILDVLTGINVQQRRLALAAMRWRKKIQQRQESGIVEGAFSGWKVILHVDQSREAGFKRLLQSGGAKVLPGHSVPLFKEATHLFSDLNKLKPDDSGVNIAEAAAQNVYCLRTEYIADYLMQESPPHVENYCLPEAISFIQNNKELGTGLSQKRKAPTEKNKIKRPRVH
# UniProt Q9Y4G6: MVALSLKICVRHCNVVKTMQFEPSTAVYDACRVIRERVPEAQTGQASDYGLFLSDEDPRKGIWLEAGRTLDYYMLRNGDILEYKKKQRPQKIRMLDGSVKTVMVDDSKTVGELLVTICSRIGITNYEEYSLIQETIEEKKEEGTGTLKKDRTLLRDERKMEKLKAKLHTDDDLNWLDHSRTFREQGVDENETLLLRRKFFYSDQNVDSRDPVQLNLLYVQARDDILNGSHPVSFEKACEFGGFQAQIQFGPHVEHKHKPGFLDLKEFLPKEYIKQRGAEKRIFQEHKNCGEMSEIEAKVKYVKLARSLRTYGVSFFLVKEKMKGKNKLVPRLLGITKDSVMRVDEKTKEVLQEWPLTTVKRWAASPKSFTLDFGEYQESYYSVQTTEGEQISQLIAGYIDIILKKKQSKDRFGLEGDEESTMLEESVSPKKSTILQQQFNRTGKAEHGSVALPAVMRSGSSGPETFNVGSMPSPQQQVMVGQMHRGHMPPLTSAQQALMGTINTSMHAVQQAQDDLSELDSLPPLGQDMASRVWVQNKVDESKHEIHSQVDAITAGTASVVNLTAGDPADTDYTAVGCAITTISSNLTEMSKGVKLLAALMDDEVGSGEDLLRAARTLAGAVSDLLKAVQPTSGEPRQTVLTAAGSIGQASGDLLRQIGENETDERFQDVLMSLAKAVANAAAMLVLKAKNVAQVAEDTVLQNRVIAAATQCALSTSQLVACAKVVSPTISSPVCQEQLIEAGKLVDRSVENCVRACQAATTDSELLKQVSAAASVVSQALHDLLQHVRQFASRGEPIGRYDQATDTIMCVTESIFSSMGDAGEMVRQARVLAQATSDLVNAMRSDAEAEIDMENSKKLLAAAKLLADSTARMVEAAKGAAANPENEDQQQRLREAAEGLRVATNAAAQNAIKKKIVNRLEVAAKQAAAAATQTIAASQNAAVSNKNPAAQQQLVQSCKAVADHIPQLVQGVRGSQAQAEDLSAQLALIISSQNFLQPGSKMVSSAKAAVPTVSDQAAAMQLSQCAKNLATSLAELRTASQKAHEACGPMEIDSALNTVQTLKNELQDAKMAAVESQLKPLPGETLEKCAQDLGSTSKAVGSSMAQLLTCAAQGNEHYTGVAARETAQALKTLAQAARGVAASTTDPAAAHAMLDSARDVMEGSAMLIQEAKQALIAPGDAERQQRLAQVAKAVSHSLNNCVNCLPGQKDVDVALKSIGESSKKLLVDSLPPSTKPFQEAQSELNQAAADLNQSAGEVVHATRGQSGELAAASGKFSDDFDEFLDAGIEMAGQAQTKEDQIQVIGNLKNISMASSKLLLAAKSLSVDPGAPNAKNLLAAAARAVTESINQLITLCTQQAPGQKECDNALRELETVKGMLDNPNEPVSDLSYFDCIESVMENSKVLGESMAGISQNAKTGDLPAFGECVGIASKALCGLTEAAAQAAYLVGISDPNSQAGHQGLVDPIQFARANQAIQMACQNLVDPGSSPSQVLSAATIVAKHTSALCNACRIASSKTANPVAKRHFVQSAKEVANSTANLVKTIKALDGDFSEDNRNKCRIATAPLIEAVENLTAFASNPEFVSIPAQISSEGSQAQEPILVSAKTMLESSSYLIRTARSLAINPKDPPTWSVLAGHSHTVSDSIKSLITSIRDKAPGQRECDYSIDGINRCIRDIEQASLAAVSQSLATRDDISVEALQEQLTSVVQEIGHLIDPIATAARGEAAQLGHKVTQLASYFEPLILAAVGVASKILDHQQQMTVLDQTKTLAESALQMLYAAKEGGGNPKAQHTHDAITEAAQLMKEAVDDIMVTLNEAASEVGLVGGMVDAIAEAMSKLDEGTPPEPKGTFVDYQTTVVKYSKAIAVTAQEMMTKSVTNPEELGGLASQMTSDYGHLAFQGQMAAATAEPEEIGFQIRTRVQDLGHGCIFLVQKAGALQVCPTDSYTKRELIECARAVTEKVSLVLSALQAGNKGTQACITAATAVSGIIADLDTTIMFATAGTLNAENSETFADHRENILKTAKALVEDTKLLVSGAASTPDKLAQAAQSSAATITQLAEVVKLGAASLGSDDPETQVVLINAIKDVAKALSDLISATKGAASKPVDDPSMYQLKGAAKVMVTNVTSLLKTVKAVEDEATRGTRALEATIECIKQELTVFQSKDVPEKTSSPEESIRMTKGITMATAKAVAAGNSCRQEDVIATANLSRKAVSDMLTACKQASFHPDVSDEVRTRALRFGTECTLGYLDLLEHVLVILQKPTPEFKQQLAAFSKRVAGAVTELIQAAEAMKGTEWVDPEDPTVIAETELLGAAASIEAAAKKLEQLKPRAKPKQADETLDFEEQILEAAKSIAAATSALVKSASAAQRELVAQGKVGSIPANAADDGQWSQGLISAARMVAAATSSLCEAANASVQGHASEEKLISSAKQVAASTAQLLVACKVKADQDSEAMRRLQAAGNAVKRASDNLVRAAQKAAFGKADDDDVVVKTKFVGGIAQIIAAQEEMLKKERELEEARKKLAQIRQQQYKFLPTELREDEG
# UniProt Q9NWD8: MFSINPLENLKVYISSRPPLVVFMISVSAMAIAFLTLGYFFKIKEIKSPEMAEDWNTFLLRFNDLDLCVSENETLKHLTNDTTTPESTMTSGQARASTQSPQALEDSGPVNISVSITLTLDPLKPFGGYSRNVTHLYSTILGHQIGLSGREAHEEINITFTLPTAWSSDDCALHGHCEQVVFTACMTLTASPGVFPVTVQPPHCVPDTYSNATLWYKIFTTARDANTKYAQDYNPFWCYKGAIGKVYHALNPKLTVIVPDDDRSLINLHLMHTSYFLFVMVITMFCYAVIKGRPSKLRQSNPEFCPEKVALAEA
# UniProt P11387: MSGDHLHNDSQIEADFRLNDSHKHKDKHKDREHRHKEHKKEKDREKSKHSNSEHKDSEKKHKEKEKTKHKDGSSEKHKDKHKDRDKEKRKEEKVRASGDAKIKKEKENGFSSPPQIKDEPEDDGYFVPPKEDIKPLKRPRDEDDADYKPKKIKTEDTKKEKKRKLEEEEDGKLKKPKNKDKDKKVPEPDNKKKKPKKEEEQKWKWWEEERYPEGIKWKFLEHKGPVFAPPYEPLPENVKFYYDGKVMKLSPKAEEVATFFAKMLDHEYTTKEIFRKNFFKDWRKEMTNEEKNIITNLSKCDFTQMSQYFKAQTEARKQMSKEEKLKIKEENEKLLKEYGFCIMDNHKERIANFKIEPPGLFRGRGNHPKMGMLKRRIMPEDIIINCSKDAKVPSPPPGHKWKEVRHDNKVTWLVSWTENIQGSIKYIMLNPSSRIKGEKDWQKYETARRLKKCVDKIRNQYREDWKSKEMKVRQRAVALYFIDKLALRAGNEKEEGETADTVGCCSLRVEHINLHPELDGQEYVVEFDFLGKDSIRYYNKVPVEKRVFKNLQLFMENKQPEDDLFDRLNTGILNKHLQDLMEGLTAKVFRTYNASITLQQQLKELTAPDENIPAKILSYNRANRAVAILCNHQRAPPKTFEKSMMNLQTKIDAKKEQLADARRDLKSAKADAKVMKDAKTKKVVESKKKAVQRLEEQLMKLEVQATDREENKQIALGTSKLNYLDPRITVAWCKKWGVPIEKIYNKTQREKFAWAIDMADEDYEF
# Compound: Cc1cc(ccc1-c1ccccc1)C(=O)N1CCCN(CC1)C(=O)CCl [compound 10]
# Assay: probe-labelled cysteine peptide fold change vs DMSO (competition) (log2 fold change); higher = less target engagement (more negative = stronger competition)
# Settings: THP-1, incubation time: 4 h
# 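Further: competitive profiling in live THP-1 cells: cysteine peptides tagged with an iodoacetamide desthiobiotin (IA-DTB) probe, intensity after compound treatment relative to DMSO-treated cells.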
Target,probe-labelled cysteine peptide fold change (10 µM),probe-labelled cysteine peptide fold change (50 µM)
TONSL_Q96HA7_596+608_FLLDHGAAVDDPGGQGCEGITPLHDALNCGHFEVAELLLER (UniProt Q96HA7),-0.11,-0.797
TOP2B_Q02880_1018_LQTTLTCNSMVLFDHMGCLK (UniProt Q02880),-0.0106,0.0237
TMEM131L_A2VDJ0_352_IASFTCK (UniProt A2VDJ0),-0.15,0.0594
TNS3_Q68CZ2_25_IIAVSFPAGCSEESYLHNLQEVTR (UniProt Q68CZ2),-0.0114,0.115
TMEM106B_Q9NUM4_61_DSVTCPTCQGTGR (UniProt Q9NUM4),-0.109,-0.0327
TOE1_Q96GM8_80_SLLNQCIEER (UniProt Q96GM8),-0.52,-2.28
TOPBP1_Q92547_113_AEHPVYNMVMSDVTISCTSLEK (UniProt Q92547),-0.144,-0.214
TLN2_Q9Y4G6_1663_ECDYSIDGINR (UniProt Q9Y4G6),0.206,0.382
TNS3_Q68CZ2_88_MCTICK (UniProt Q68CZ2),-0.357,-0.873
TPI1_P60174_164_VAHALAEGLGVIACIGEKLDEREAGITEK (UniProt P60174),0.0228,-0.204
TOLLIP_Q9H0E2_106_VIHCTVPPGVDSFYLEIFDER (UniProt Q9H0E2),0.0754,-0.0973
TNPO1_Q92973_205_SHAVACVNQFIISR (UniProt Q92973),0.172,0.0841
TMEM248_Q9NWD8_305_QSNPEFCPEK (UniProt Q9NWD8),-0.205,-0.534
TMEM30A_Q9NV96_91_EIEIDYTGTEPSSPCNK (UniProt Q9NV96),-0.0121,0.0439
TLN2_Q9Y4G6_1047_AHEACGPMEIDSALNTVQTLK (UniProt Q9Y4G6),0.0762,0.000317
TOP2A_P11388_1008_LQTSLTCNSMVLFDHVGCLK (UniProt P11388),-0.204,-0.0237
TMEM33_P57088_204_RNPYCR (UniProt P57088),0.126,0.387
TM9SF4_Q92544_227_SSCTLPEGTNSSPQEIDPTK (UniProt Q92544),-0.0841,0.188
TMEM206_Q9H813_128_EVDRYDAPGIALYPGQAQLLSCK (UniProt Q9H813),-0.272,-0.242

Target,probe-labelled cysteine peptide fold change (10 µM),probe-labelled cysteine peptide fold change (50 µM)
TOPBP1_Q92547_60_SLYICDPFSGVVFDHLK (UniProt Q92547),0.344,0.398
TOP1_P11387_505_AGNEKEEGETADTVGCCSLR (UniProt P11387),-0.0231,-0.756
TM9SF2_Q99805_164_SMLLNYQHHWIVDNMPVTWCYDVEDGQR (UniProt Q99805),-0.00973,0.0215
TONSL_Q96HA7_561_DYCGWTPLHEACNYGHLEIVR (UniProt Q96HA7),0.227,-0.365
TONSL_Q96HA7_1345_RLCAEDR (UniProt Q96HA7),-0.014,-0.108
TOE1_Q96GM8_371_QVCGDSIKPEETEQEVAADETR (UniProt Q96GM8),0.000201,-0.352
TMEM104_Q8NE00_455_DTQLAFGCGVSNK (UniProt Q8NE00),-0.127,-0.346
TOP1_P11387_300_CDFTQMSQYFK (UniProt P11387),0.0952,0.0679
TNKS1BP1_Q9C0C2_1296_NMAPGAVCSPGESK (UniProt Q9C0C2),-0.618,-0.58
TMEM192_Q8IY95_266_LLALTSSDLGCQPSR (UniProt Q8IY95),-0.445,-0.233
TMED4_Q7Z7H5_41_RCFIEEIPDETMVIGNYR (UniProt Q7Z7H5),-0.152,0.0268
TONSL_Q96HA7_1248_EGCALAHLTLSANHLGDK (UniProt Q96HA7),0.0642,-0.312
TNRC18_O15417_475_ELLKPEADPRPCER (UniProt O15417),-0.0425,-0.0152
TLR2_O60603_454_IHSVTGCIPK (UniProt O60603),-0.0796,0.228
TOP2A_P11388_997_LQTSLTCNSMVLFDHVGCLK (UniProt P11388),-0.121,-0.0857
TOPORS_Q9NS56_550_GHCDSSTR (UniProt Q9NS56),0.261,-0.252
TMEM94_Q12767_381_CIWGHFLR (UniProt Q12767),0.0561,-0.131
TONSL_Q96HA7_124_THLDIYDHCQSR (UniProt Q96HA7),0.0757,-0.623
TPP1_O14773_111_CHSVITQDFLTCWLSIR (UniProt O14773),-0.23,0.167

# Source: the supplement of paper PMC12067093, “Discovery and optimisation of a covalent ligand for TRIM25 and its application to targeted protein ubiquitination” (Chemical Science, 2025)
